No constants are given. Whether binding was seen depends on the method and setting. Binding seen in cells or lysates may run through a third protein. Some entries that bind do so weakly or less than the wild type.
Columns and labels:
[1] = molecular target: T1, macrophage-inducible C-type lectin (Mincle) receptor (mouse (endogenous in primary microglia and brain tissue)) (UniProt Q9R0Q8); test: co-IP; RIPA lysates (500 µg protein) of primary microglia treated with or without 8 µg/ml rmProperdin; IP with 2 µg mouse anti-Mincle or control mouse IgG overnight at 4 °C, Protein A/G PLUS-agarose; blot with anti-properdin and anti-Mincle; only the binder purified
T1 sequence: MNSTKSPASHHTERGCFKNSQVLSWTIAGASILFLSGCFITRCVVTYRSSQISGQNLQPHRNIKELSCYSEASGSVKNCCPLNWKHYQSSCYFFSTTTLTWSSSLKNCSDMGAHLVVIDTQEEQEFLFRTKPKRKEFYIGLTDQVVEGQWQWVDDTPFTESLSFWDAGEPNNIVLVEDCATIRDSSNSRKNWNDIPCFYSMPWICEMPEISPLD

Amino acid sequences for entries named in this document (tags omitted). Residues count along the entry.
UniProt P11680, residues 23-464: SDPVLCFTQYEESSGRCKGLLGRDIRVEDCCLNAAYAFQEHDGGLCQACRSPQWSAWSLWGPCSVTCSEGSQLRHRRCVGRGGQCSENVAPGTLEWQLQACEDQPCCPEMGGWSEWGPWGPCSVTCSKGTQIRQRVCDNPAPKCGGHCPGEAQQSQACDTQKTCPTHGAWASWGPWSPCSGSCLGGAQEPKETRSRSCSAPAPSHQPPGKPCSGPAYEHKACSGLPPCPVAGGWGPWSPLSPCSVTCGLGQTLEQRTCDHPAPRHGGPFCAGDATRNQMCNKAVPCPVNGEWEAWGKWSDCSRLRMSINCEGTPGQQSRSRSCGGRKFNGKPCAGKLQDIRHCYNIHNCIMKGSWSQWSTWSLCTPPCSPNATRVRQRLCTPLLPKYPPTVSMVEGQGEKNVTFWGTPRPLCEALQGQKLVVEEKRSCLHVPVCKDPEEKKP

[2] = molecular target: T1, macrophage-inducible C-type lectin (Mincle) receptor (mouse (endogenous in primary microglia and brain tissue)); test: proximity ligation; Duolink PLA on fixed, permeabilised primary microglia treated with rmProperdin or left as control; mouse anti-Mincle and rabbit anti-properdin; signal if probes < 40 nm apart; only the binder purified
[3] = molecular target: T1, macrophage-inducible C-type lectin (Mincle) receptor (mouse (endogenous in primary microglia and brain tissue)); test: co-IP; RIPA lysates of brain tissue (ischemic brain); IP with mouse anti-Mincle or control mouse IgG, Protein A/G PLUS-agarose; blot with anti-properdin

binding [1]	binding [2]	binding [3]	Substance
binds	binds		eukaryotic recombinant mouse properdin (from UniProt P11680 23-464)
		binds	properdin (endogenous, ischemic brain tissue) (from UniProt P11680 23-464)

Source: article PMC10640761
